Measurements: the supplement of paper PMC6289059
Some of the results follow. Repeats are few or missing, and single values can be far off.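 Hepatocyte-like cells derived from human stem cells with CRISPR-disrupted DGUOK model liver mtDNA depletion syndrome. Each well's ATP signal was scored against other wells on the same plate, and drugs scoring 3 or above were primary hits.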

Test system: DGUOK Δ14/Δ5 iPSC-derived hepatocyte-like cells (SV20)
Assay: ATP level (CellTiter-Glo luminescence) Z score relative to plate distribution, under 2-DG glycolysis block; higher = more cellular ATP (rescue of mitochondrial ATP production)
Conditions: 5 µM; treatment time: day 15 to day 20 of differentiation (5 days); 2-deoxy-D-glucose: 20 mM for 24 h before assay

SMILES | ATP level
COc1cc(OC)c2c(=O)c(-c3ccccc3)c(C)oc2c1OC | inactive: 0.614
Cc1cnc(C(=O)O)c[n+]1[O-] | inactive: 1.46
CC(=O)Nc1cccc(O)c1 | inactive: 0.54
O=c1c(O)c(-c2ccc(O)c(O)c2)oc2cc(O)cc(O)c12 | inactive: 1.35
O=C(O)C1(C(=O)O)CCC1.[NH2-].[NH2-].[Pt+2] | inactive: 2.48
O=C(O)[C@H]1/C(=C/CO)O[C@@H]2CC(=O)N21 | inactive: -0.145
CC1=C(C/C=C(\C)CCC[C@H](C)CCC[C@H](C)CCCC(C)C)C(=O)c2ccccc2C1=O | inactive: -0.0998
CC1CCCC(C)N1 (stereo unspecified) | inactive: -1.74
Cc1ncc(COP(=O)([O-])[O-])c(CN(CCN(CC(=O)O)Cc2c(COP(=O)([O-])O)cnc(C)c2O)CC(=O)O)c1O.[Mn].[Na+].[Na+].[Na+] | inactive: -2.63
COc1cc(OC)c(-c2c(OC)cc(OC)cc2OC)c(OC)c1 | inactive: -0.618
CC(C)(C)NCC(O)c1cc(O)cc(O)c1 (stereo unspecified) | inactive: 1.21
COc1ccc2c(c1)O[C@@H]1COc3cc(OC)c(OC)cc3[C@@H]1C2=O | inactive: -5.39
CC[N+](CC)(CC)CCOc1cccc(OCC[N+](CC)(CC)CC)c1OCC[N+](CC)(CC)CC | inactive: 1.6
CCOC(=O)[N-]c1c[n+](N2CCOCC2)no1 | inactive: 1.43
NCc1ccc(S(N)(=O)=O)cc1 | inactive: -0.945
CN[C@@H]1[C@H](O[C@H]2[C@H](O[C@H]3[C@H](O)[C@@H](O)[C@H](NC(=N)N)[C@@H](O)[C@@H]3NC(=N)N)O[C@@H](C)[C@]2(O)CO)O[C@@H](CO)[C@H](O)[C@H]1O | inactive: 2.62
COc1cc2oc3cc(OC)c(OC)c(CC=C(C)C)c3c(=O)c2c(OC)c1CC=C(C)C | inactive: -1.64
CC/C(=C(\c1ccccc1)c1ccc(OCCN(C)C)cc1)c1ccccc1 | inactive: -12.8
CCc1oc2ccccc2c1C(=O)c1cc(Br)c(O)c(Br)c1 | inactive: 1.31
CC(=O)Nc1ccc(C(=O)O)cc1 | inactive: -0.516
O=C(O)c1cccnc1C(=O)O | inactive: -0.802

SMILES | ATP level
CC(C)(C)CC(=O)OCC(=O)[C@@]1(O)CC[C@H]2[C@@H]3CCC4=CC(=O)C=C[C@]4(C)[C@H]3[C@@H](O)C[C@@]21C | inactive: 1.69
O=C(O)c1ccccc1 | inactive: 0.704
CCOc1ccc(NC(C)=O)cc1 | inactive: 0.939
CN1CCC[C@@H]1CCO[C@](C)(c1ccccc1)c1ccc(Cl)cc1 | inactive: -13.2
CC(=O)O[C@H]1CC[C@]2(C)[C@H]3C(=O)C=C4[C@@H]5C[C@@](C)(C(=O)O)CC[C@]5(C)CC[C@@]4(C)[C@]3(C)CC[C@H]2C1(C)C | inactive: -1.39
CN1CCN(c2c(F)cc3c(=O)c(C(=O)O)cn4c3c2SCC4)CC1 | inactive: -6.12
CC(C)=CCc1c2c(c3occ(-c4ccc(O)cc4)c(=O)c3c1O)C=CC(C)(C)O2 | inactive: 0.506
C/C=C(/C)C(=O)O[C@H]1[C@H](OC(C)=O)[C@@]2(CO)C(CC1(C)C)C1=CCC3[C@@]4(C)CCC(O[C@@H]5O[C@H](C(=O)O)[C@@H](O[C@@H]6O[C@H](CO)[C@@H](O)[C@H](O)[C@H]6O)[C@H](O)[C@H]5O[C@@H]5O[C@H](CO)[C@@H](O)[C@H](O)[C@H]5O)[C@](C)(CO)C4CC[C@@]3(C)[C@]1(C)C[C@H]2O.C/C=C(\C)C(=O)O[C@H]1[C@H](OC(C)=O)[C@@]2(CO)C(CC1(C)C)C1=CCC3[C@@]4(C)CCC(O[C@@H]5O[C@H](C(=O)O)[C@@H](O[C@@H]6O[C@H](CO)[C@@H](O)[C@H](O)[C@H]6O)[C@H](O)[C@H]5O[C@@H]5O[C@H](CO)[C@@H](O)[C@H](O)[C@H]5O)[C@](C)(CO)C4CC[C@@]3(C)[C@]1(C)C[C@H]2O (stereo partly specified) | inactive: -0.823
COC(=O)C1=C(C)NC(C)=C(C(=O)OCC(C)C)C1c1ccccc1[N+](=O)[O-] (stereo unspecified) | inactive: -0.87
O=C1CCc2ccc(OCCCCN3CCN(c4cccc(Cl)c4Cl)CC3)cc2N1 | inactive: -3.98
CN(C)CCOC(c1ccc(Cl)cc1)c1ccccn1 (stereo unspecified) | inactive: -0.302
NC(=O)NC1NC(=O)NC1=O (stereo unspecified) | inactive: 0.841
C[C@@H]1CC[C@@]23CCC4(C)[C@@](C=CC5[C@@]6(C)CCC(=O)C(C)(C)C6CC[C@]54C)(OC2=O)C3[C@H]1C (stereo partly specified) | active: 8.17
COc1c2ccoc2cc2oc(=O)ccc12 | inactive: -0.184
Cn1c2ncnc-2c(O)n(C)c1=O | inactive: 2.79
Cc1ccccc1C(OCCN(C)C)c1ccccc1 (stereo unspecified) | inactive: -3.2
N=C(N)NCCCCN | inactive: -0.101
CN1CCOC(c2ccccc2)c2ccccc2C1 (stereo unspecified) | inactive: -0.698
CN1CCC(=C2c3ccccc3CCc3sccc32)CC1 | inactive: -3.98
CCN(CC)CCOc1ccc(C(=C(Cl)c2ccccc2)c2ccccc2)cc1 | inactive: -0.096
COc1cc2occ(-c3ccccc3)c(=O)c2c(OC)c1C | inactive: -5.28

Five compounds drawn at random from those above:
SMILES | ATP level
CN1CCN(c2c(F)cc3c(=O)c(C(=O)O)cn4c3c2SCC4)CC1 | inactive: -6.12
COc1cc2occ(-c3ccccc3)c(=O)c2c(OC)c1C | inactive: -5.28
COc1c2ccoc2cc2oc(=O)ccc12 | inactive: -0.184
CC(C)(C)CC(=O)OCC(=O)[C@@]1(O)CC[C@H]2[C@@H]3CCC4=CC(=O)C=C[C@]4(C)[C@H]3[C@@H](O)C[C@@]21C | inactive: 1.69
Cc1cnc(C(=O)O)c[n+]1[O-] | inactive: 1.46

More records follow:

SMILES | ATP level
CCCCNc1ccc(C(=O)OCCN(C)C)cc1 | inactive: -1.07
CCCCCOC(=O)Nc1nc(=O)n([C@@H]2O[C@H](C)[C@@H](O)[C@H]2O)cc1F | inactive: 0.823
CCC1NC(=O)c2cc(S(N)(=O)=O)c(Cl)cc2N1 (stereo unspecified) | inactive: 0.419
CC(O)(P(=O)(O)O)P(=O)(O)O | inactive: 0.23
Cc1cnc(C(=O)NCCc2ccc(S(=O)(=O)NC(=O)NC3CCCCC3)cc2)cn1 | inactive: 1.83
CCc1ccc2c(O)c3c(cc2c1C(=O)OC)C(=O)c1c(O)ccc(O)c1C3=O | inactive: 0.848
O=S(=O)(O)c1cc(I)c(O)c2ncccc12 | inactive: 0.507
CC(=O)O[C@H]1C[C@@H](OC(C)=O)C(C)(C)[C@@H]2C[C@@H](OC(C)=O)[C@@]3(C)C4=CC(=O)O[C@@H](c5ccoc5)[C@]4(C)CC[C@@H]3[C@@]12C | inactive: 1.74
O=C1[C@H](CC[C@H](O)c2ccc(F)cc2)[C@@H](c2ccc(O)cc2)N1c1ccc(F)cc1 | inactive: 0.0494
CC(C)=CCC1=C(O)c2ccccc2C(=O)C1=O | inactive: 0.0566
CC(C)NCC(O)c1cc(O)cc(O)c1 (stereo unspecified) | inactive: 1.27
COc1ccc(-c2cc(=O)c3c(OC)c(OC)c(OC)cc3o2)cc1OC | inactive: -0.701
C#CCN(C)CCCOc1ccc(Cl)cc1Cl | inactive: -0.396
O=C(O)CN(CCN(CC(=O)O)CC(=O)O)CCN(CC(=O)O)CC(=O)O | inactive: -7.83
OC[C@H]1O[C@@H](O[C@H]2[C@H](O)[C@@H](O)C(O)O[C@@H]2CO)[C@H](O)[C@@H](O)[C@@H]1O (stereo partly specified) | inactive: 2.36
COc1ccc2c(c1)O[C@H]1c3ccc(OC)cc3OC[C@@H]21 | inactive: -0.68
COc1ccccc1N1CCN(CCCNc2cc(=O)n(C)c(=O)n2C)CC1 | inactive: -1.69
CC(C)CCCC(C)C1CCC2C3CCC4CC(O)CCC4(C)C3CCC12C (stereo not drawn) [5alpha-CHOLESTANOL] | inactive: 0.433
COc1nc(N)nc2c1ncn2[C@@H]1O[C@H](CO)[C@@H](O)[C@@H]1O | inactive: -0.391
OC[C@H]1O[C@@](CO)(O[C@H]2O[C@H](CO)[C@@H](O)[C@H](O)[C@H]2O)[C@@H](O[C@H]2O[C@H](CO)[C@@H](O)[C@H](O)[C@H]2O)[C@@H]1O | inactive: 0.65
CCC(=O)OCC(=O)[C@@]1(OC(=O)CC)[C@@H](C)C[C@H]2[C@@H]3CCC4=CC(=O)C=C[C@]4(C)[C@@]3(Cl)[C@@H](O)C[C@@]21C | inactive: 1.64

Structures from the list above that contain a tert-butyl group:
SMILES | ATP level
CC(C)(C)NCC(O)c1cc(O)cc(O)c1 (stereo unspecified) | inactive: 1.21
CC(C)(C)CC(=O)OCC(=O)[C@@]1(O)CC[C@H]2[C@@H]3CCC4=CC(=O)C=C[C@]4(C)[C@H]3[C@@H](O)C[C@@]21C | inactive: 1.69

Remaining list, next part:

SMILES | ATP level
O=C(/C=C/C=C/c1ccc2c(c1)OCO2)N1CCCCC1 | inactive: 0.29
CCN(CC)S(=O)(=O)c1ccc(C(=O)O)cc1 | inactive: 1.02
CCN(CC)Cc1cc(Nc2ccnc3cc(Cl)ccc23)ccc1O | inactive: -2.64
Cc1nc2n(c(=O)c1CCN1CCC(c3noc4cc(F)ccc34)CC1)CCCC2O (stereo unspecified) | inactive: -1.47
CCN(CC)CCNC(=O)COc1ccc(OC)cc1 | inactive: 0.054
CC(=O)OCC1=C(C(=O)O)N2C(=O)[C@@H](NC(=O)Cc3cccs3)[C@H]2SC1 | inactive: -11.2
CCOc1ccc(NC(=O)CC(C)O)cc1 (stereo unspecified) | inactive: -0.152
COc1c(O)cc2oc3cc(O)c(CC=C(C)C)c(O)c3c(=O)c2c1CC=C(C)C [alpha-MANGOSTIN] | inactive: -7.09
C=CCCCCCCCCC(=O)O | inactive: 0.773
COC(=O)C[C@H]1C(C)(C)[C@@H](OC(C)=O)[C@@H]2CC3C4CC(=O)O[C@@H](c5ccoc5)[C@]4(C)CCC3[C@@]1(C)C2=O (stereo partly specified) | inactive: -3.99
CCCCc1nc(Cl)c(CO)n1Cc1ccc(-c2ccccc2-c2nnn[nH]2)cc1 | active: 3.03
CC1(C)S[C@@H]2[C@H](NC(=O)Cc3ccccc3)C(=O)N2[C@H]1C(=O)O | inactive: -0.115
O=C1CCC(N2C(=O)c3ccccc3C2=O)C(=O)N1 (stereo unspecified) | inactive: -7.92
CC1(C)C[C@@H]2C(=O)CC[C@H]3O[C@]3(C)CC[C@H]21 | inactive: 0.242
O=C1OC(CN2CCOCC2)CN1/N=C/c1ccc([N+](=O)[O-])o1 (stereo unspecified) | inactive: -0.681
CC[n+]1c(-c2ccccc2)c2cc(N)ccc2c2ccc(N)cc21 | inactive: -11.7
O=C(O)[C@]1(O)C[C@@H](O)[C@@H](O)[C@H](O)C1 | inactive: 0.0231
O=C(O)CCNC(=O)c1ccc(/N=N/c2ccc(O)c(C(=O)O)c2)cc1 | inactive: -0.325
